Measurements reported in PubChem BioAssay AID1259308 (NCATS, 2017).
The deposit covers about 59,000 reagents; this is a part drawn at random. About 1,510 of all reagents (2.6%) count as active. 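Calls use total luciferase alone and ignore viability, so some active siRNAs may act by altering cell number.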 Unmarked entries are inactive. The numbers tell different reagents against one gene apart. Further read-outs or replicates are left out here. No sequences are given here.

Purpose: 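Knock-downs that increase output of a recombinant reporter protein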 (primary screen)
System: human HEK293 embryonic kidney cells stably expressing firefly luciferase (HEK-CMV-Luc2-Hygro)
Reagent: single siRNA against human genes, 0.8 pmol siRNA per well
Time to read-out: 72 h
Read-out: 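Reporter luminescence and viable-cell signal on separate replicate plates, given as percent of non-targeting control and median/MAD z-scores, plus per-cell luciferase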
Scale: total luciferase, z-score and total luciferase, % of control: higher = more reporter protein produced; luciferase per cell, z-score: higher = more reporter output per viable cell
Active means: 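An siRNA counts as active if its total luciferase robust z-score exceeds 3; genes with two or more such siRNAs out of three were retested with fresh siRNAs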
Calls: active = raised luciferase; inactive = no rise

target | reagent | total luciferase, z-score | total luciferase, % of control | luciferase per cell, z-score
CFAP20 | 1 | 1.15 | 105 | 1.15
CFAP20 | 2 | 0.86 | 99 | 0.233
CFAP20 | 3 | 0.167 | 85.2 | -0.499
JAKMIP1 | 1 | 1.58 | 113 | 2.71
JAKMIP1 | 2 | -0.559 | 70.8 | -0.469
JAKMIP1 | 3 | 0.352 | 88.9 | 1.26
FBP2 | 1 | 2.33 | 128 | 2.72
FBP2 | 2 | 0.0615 | 83.1 | -0.723
FBP2 | 3 | 0.689 | 95.6 | 0.785
DEFB106A | 1 | -0.851 | 65 | -0.863
DEFB106A | 2 | -2.94 | 23.4 | -2.79
DEFB106A | 3 | -0.519 | 71.6 | 0.12
PKD2L1 | 1 | 0.222 | 86.3 | -0.00735
PKD2L1 | 2 | 3.56 (active) | 153 | 3.91
PKD2L1 | 3 | -0.691 | 68.1 | -1.2
UBE2K | 1 | 1.95 | 121 | 1.99
UBE2K | 2 | -0.623 | 69.5 | -0.807
UBE2K | 3 | -0.656 | 68.8 | -0.318
RPS10P15 | 1 | 0.428 | 90.4 | 0.145
RPS10P15 | 2 | 1.72 | 116 | 2.28
RPS10P15 | 3 | -0.599 | 70 | -0.562
MRPL22 | 1 | -0.0574 | 80.7 | -0.737
MRPL22 | 2 | -0.278 | 76.4 | -0.824
MRPL22 | 3 | -0.792 | 66.1 | -0.896

Just “luciferase per cell, z-score” (5 entries from above):
JAKMIP1 #1: 2.71
JAKMIP1 #2: -0.469
JAKMIP1 #3: 1.26
FBP2 #1: 2.72
FBP2 #2: -0.723

Next results follow.
target | reagent | total luciferase, z-score | total luciferase, % of control | luciferase per cell, z-score
TMTC3 | 1 | -2.7 | 28.1 | -3.17
TMTC3 | 2 | 0.266 | 87.2 | 0.113
TMTC3 | 3 | 0.67 | 95.2 | 1.04
MUTYH | 1 | 0.222 | 86.3 | 0.599
MUTYH | 2 | 0.639 | 94.6 | -0.158
MUTYH | 3 | 0.409 | 90 | 0.518
H2BW1 | 1 | 0.187 | 85.6 | -0.323
H2BW1 | 2 | 1.07 | 103 | 0.746
H2BW1 | 3 | 0.228 | 86.4 | 0.529
H4C3 | 1 | 0.237 | 86.6 | 0.157
H4C3 | 2 | 0.999 | 102 | 1.39
H4C3 | 3 | 0.798 | 97.8 | 0.821
PARP15 | 1 | 0.277 | 87.4 | -0.342
PARP15 | 2 | 0.193 | 85.7 | -0.123
PARP15 | 3 | -0.497 | 72 | -1.13
